This passage reports log2 fold change results from the supplement of paper PMC12819154, “High-throughput peptide-centric local stability assay extends protein–ligand identification to membrane proteins, tissues and bacteria” (Nature Structural & Molecular Biology, 2025).

Chains of the proteins cited; added tags and fusions are not shown. Lines headed by an entry give the natural chain unless they say otherwise; changes in a name come on top.
UniProt Q8BMS9: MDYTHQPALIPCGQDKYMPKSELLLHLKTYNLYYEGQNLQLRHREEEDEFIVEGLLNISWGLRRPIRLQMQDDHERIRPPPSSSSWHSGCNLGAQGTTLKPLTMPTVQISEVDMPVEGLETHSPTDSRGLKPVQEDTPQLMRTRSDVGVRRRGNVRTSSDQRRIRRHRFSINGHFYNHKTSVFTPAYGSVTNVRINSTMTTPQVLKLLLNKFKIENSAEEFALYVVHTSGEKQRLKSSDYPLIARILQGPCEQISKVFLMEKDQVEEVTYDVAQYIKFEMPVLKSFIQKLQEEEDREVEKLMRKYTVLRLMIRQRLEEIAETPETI
UniProt Q8BRH0: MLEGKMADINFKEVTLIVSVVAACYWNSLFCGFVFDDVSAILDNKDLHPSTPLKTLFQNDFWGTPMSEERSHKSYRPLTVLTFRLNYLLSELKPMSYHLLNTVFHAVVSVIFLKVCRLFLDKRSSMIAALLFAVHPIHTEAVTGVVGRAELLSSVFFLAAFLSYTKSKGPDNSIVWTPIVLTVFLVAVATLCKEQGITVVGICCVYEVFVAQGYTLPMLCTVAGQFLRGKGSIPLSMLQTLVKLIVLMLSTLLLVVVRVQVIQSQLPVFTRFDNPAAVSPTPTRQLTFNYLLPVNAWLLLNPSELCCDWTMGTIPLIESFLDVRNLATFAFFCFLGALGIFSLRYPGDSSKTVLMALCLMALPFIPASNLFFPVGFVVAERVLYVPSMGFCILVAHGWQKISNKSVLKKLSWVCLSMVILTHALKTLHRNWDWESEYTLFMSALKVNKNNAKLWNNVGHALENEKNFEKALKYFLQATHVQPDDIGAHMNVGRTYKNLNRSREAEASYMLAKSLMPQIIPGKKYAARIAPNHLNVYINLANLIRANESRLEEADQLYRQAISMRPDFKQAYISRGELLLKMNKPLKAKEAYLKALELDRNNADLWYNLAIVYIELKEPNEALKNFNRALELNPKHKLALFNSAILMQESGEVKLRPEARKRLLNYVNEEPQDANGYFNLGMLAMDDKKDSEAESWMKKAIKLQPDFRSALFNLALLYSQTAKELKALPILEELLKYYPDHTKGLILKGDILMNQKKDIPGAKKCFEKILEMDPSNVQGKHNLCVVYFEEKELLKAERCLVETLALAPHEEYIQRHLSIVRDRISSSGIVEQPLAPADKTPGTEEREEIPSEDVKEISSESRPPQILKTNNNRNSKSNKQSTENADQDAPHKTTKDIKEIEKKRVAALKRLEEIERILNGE
UniProt Q8BQR4: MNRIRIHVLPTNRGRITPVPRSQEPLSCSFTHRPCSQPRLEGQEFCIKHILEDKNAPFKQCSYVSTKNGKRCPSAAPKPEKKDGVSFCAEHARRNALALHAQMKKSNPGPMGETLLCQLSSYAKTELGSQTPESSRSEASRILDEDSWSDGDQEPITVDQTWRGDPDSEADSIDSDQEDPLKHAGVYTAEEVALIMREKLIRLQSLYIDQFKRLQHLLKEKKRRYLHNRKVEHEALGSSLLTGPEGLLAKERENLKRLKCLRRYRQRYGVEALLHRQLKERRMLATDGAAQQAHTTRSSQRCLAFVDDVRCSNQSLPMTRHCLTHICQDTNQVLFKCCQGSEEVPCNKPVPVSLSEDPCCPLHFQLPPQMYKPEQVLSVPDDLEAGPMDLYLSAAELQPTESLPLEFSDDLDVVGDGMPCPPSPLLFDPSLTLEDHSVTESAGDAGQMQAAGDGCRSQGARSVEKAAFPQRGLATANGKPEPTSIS
UniProt Q8BU14: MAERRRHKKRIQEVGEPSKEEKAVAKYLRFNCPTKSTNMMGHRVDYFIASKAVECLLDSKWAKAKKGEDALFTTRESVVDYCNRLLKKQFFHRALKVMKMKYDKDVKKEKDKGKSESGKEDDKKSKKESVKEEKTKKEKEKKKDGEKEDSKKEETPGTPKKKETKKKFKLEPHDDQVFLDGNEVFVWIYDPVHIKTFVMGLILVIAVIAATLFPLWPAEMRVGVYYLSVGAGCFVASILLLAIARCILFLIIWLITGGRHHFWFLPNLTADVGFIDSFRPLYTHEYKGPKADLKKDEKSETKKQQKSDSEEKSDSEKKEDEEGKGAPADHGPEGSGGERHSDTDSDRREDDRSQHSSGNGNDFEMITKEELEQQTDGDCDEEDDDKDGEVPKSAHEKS
UniProt Q8BKN5, whole entry: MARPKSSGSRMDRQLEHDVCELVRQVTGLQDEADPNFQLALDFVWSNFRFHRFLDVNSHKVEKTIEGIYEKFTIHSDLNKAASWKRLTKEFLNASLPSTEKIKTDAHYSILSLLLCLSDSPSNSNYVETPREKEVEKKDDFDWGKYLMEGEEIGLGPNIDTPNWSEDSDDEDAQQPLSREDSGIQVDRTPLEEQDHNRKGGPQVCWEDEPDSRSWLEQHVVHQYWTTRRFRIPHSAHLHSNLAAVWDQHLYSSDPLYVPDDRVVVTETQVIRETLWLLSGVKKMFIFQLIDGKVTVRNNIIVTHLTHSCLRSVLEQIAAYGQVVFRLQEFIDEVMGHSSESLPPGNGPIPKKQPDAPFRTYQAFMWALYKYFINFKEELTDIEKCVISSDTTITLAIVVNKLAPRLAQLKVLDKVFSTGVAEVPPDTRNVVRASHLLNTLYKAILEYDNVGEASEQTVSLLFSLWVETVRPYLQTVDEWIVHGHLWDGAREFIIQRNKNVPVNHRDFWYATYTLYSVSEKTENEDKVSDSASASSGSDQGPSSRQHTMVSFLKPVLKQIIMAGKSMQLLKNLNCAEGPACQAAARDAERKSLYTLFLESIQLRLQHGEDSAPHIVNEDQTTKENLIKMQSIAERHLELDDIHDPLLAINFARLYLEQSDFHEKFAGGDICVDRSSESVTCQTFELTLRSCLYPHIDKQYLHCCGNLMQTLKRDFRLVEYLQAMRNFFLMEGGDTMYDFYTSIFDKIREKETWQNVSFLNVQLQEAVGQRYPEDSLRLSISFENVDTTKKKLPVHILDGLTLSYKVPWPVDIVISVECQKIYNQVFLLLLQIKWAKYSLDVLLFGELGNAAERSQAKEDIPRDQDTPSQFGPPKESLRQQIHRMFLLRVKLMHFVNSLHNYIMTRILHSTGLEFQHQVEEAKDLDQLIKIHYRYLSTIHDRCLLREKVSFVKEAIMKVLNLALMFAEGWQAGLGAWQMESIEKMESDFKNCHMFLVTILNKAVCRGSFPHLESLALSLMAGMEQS
UniProt Q8BJY1: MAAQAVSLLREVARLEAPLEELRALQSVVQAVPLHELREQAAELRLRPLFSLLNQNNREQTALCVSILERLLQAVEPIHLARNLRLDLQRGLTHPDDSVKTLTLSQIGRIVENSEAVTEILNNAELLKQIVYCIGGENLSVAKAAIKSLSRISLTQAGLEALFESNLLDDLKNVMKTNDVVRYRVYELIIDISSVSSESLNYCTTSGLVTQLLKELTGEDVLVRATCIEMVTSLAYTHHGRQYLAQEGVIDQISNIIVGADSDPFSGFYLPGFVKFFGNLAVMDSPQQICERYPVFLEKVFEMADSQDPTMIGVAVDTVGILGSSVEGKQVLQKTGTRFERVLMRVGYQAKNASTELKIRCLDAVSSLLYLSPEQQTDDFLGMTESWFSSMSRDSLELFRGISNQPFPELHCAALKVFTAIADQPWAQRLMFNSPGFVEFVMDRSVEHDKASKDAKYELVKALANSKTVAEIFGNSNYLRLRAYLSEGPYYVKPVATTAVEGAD
UniProt Q8BQ89: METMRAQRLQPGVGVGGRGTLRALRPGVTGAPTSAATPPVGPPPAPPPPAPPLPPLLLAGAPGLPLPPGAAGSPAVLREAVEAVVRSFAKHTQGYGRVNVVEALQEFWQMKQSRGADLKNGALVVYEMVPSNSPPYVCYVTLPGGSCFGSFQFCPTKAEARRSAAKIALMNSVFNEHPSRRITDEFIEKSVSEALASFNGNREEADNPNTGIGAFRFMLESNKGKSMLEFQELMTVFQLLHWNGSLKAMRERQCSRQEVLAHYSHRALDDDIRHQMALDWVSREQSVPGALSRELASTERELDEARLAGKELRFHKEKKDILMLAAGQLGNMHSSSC
UniProt Q8BKT3: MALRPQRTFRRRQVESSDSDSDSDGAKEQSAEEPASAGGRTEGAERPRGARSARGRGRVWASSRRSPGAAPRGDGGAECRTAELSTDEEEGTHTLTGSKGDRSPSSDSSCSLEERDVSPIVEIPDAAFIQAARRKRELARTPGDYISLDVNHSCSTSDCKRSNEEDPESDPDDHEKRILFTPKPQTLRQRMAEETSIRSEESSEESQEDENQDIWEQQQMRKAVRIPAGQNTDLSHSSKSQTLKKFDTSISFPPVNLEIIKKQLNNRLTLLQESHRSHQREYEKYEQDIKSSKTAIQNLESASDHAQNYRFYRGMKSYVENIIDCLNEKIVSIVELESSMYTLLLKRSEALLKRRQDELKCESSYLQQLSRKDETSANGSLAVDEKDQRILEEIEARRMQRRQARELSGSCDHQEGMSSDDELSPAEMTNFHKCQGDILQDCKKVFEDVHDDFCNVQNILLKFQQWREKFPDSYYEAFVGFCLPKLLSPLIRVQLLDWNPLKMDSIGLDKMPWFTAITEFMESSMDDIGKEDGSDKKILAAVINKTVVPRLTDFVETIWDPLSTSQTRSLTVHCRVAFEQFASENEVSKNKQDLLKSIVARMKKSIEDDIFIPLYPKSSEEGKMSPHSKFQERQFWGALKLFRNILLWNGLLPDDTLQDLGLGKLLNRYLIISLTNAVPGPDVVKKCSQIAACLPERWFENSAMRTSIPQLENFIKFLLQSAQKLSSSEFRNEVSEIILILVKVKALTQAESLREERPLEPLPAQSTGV
UniProt Q8BR63: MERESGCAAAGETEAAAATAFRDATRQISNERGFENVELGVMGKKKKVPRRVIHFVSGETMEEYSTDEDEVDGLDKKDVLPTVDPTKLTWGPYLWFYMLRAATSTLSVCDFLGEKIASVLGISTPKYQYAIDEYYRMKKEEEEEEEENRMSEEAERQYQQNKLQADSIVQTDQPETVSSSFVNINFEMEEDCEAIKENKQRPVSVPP
UniProt Q8BNI4: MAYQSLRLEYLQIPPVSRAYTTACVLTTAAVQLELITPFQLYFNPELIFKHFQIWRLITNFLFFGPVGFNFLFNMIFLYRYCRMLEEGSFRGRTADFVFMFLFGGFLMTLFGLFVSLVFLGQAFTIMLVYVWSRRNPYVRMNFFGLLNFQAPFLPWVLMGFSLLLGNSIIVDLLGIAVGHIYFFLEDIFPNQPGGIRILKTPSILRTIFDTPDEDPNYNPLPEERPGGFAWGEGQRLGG
UniProt Q8BUY5: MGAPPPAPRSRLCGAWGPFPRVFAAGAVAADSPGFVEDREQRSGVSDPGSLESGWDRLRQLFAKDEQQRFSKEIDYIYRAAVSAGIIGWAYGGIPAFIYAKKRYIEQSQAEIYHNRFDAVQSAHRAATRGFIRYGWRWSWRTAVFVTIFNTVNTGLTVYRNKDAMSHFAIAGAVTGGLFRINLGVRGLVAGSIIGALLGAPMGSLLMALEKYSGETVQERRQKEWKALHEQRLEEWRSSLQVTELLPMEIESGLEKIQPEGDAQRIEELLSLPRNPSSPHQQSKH
UniProt Q8BL65: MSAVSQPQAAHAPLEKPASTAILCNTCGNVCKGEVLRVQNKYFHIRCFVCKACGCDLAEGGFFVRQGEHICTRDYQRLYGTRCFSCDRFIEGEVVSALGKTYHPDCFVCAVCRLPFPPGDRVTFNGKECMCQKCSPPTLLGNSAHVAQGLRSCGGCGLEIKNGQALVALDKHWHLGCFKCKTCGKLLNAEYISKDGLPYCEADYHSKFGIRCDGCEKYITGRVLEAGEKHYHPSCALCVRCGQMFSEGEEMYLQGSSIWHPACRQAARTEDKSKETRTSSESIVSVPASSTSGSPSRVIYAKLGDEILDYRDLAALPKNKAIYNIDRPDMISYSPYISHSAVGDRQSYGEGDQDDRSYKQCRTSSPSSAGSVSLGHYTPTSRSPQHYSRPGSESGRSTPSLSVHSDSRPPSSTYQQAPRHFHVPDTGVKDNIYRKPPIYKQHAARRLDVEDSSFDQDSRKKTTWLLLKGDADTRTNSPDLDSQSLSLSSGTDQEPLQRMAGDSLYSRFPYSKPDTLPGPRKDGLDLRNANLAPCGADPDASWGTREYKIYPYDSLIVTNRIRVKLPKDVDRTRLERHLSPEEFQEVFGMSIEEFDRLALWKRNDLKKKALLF
UniProt Q8BTV2: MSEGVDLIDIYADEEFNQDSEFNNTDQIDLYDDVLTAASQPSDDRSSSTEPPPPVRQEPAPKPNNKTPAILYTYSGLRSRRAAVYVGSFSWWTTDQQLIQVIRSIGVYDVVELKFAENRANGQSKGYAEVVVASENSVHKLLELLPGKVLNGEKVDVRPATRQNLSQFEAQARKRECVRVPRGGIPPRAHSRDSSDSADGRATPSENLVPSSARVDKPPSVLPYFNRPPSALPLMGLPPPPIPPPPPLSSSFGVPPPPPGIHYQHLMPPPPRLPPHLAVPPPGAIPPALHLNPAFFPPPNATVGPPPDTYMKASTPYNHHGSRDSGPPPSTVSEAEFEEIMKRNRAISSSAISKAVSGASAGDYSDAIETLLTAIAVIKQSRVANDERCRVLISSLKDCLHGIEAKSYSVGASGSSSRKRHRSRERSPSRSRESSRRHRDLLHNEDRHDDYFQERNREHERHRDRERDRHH

Compound in this experiment: CN[C@@H]1C[C@H]2O[C@@](C)([C@@H]1OC)n1c3ccccc3c3c4c(c5c6ccccc6n2c5c31)C(=O)NC4 [staurosporine]
As to the kind of experiment: log2 fold change of tryptic peptide abundance, ligand vs vehicle (limited proteolysis) (log2 ratio); higher = more trypsin-susceptible (destabilized). The conditions noted are these: ligand concentration: 20 uM; sample: mouse liver crude lysate; replicate design: treated separately.

This is one part of the list. Most values lie at the level of the controls, where differences are scatter.

Turning to “UniProt Q8BMS9 (peptide sequence: ILQGPCEQISK, peptide start residue: 246)”, the log2 fold change turned out to be 0.696.
The value for “UniProt Q8BMB0 (peptide sequence: TITVPVSGSPK, peptide start residue: 194)” was 0.295; that for “UniProt Q8BKT7 (peptide sequence: AEITMGDPHQQTLAR, peptide start residue: 176)” was 0.19.
The value for “UniProt Q8BU00 (peptide sequence: MWGVLQK, peptide start residue: 178)” was -0.363.
The value for “UniProt Q8BKR5 (peptide sequence: TCEALEEVFKR, peptide start residue: 129)” was 0.14; that for “UniProt Q8BMD7 (peptide sequence: EEKQELK, peptide start residue: 842)” was 0.234; that for “UniProt Q8BQZ5 (peptide sequence: GHLAFLSGQ, peptide start residue: 203)” was 0.442.
Regarding “UniProt Q8BLY1 (peptide sequence: EMKPFKR, peptide start residue: 393)”, the log2 fold change is -0.374.
The value for “UniProt Q8BRH0 (peptide sequence: ILEMDPSNVQGK, peptide start residue: 768)” was -1.03.
The value for “UniProt Q8BQR4 (peptide sequence: YGVEALLHR, peptide start residue: 268)” was 0.257; that for “UniProt Q8BU14 (peptide sequence: MKYDKDVK, peptide start residue: 100)” was -0.2.
The value for “UniProt Q8BIZ6 (peptide sequence: LSPEPVAHR, peptide start residue: 32)” was -0.208.
On to “UniProt Q8BP40 (peptide sequence: MVQVVFR, peptide start residue: 45)”, for which the log2 fold change worked out at 0.158.
The value for “UniProt Q8BNA6 (peptide sequence: TGLITTTSR, peptide start residue: 1201)” was -0.0431; that for “UniProt Q8BKN5 (peptide sequence: FTIHSDLNK, peptide start residue: 72)” was -0.413.
The value for “UniProt Q8BNV1 (peptide sequence: ASLVCHFMEGPGK, peptide start residue: 337)” was -0.151.
The value for “UniProt Q8BJY1 (peptide sequence: ELTGEDVLVR, peptide start residue: 215)” was -0.259; that for “UniProt Q8BKT8 (peptide sequence: ADPSAQSEGEK, peptide start residue: 202)” was -0.323; that for “UniProt Q8BP00 (peptide sequence: LKKLPSAVIALQR, peptide start residue: 314)” was 0.488.
In the case of “UniProt Q8BRJ4 (peptide sequence: HVQVQLQR, peptide start residue: 115)”, the log2 fold change was -0.0111.
On to “UniProt Q8BJW6 (peptide sequence: APSTPLLTVR, peptide start residue: 2)”, for which the log2 fold change is -0.535.
The value for “UniProt Q8BQ89 (peptide sequence: EAVEAVVR, peptide start residue: 79)” was 0.199.
The value for “UniProt Q8BKT3 (peptide sequence: MAEETSIR, peptide start residue: 191)” was 0.267; that for “UniProt Q8BR63 (peptide sequence: GFENVELGVMGK, peptide start residue: 33)” was -0.131.
The value for “UniProt Q8BNI4 (peptide sequence: PGGFAWGEGQR, peptide start residue: 226)” was 0.0924; that for “UniProt Q8BUY5 (peptide sequence: YIEQSQAEIYHNRFDAVQSAHR, peptide start residue: 104)” was 0.374; that for “UniProt Q8BQM4 (peptide sequence: FIAYQETVEKR, peptide start residue: 666)” was -0.167.
As for “UniProt Q8BL65 (peptide sequence: LGDEILDYR, peptide start residue: 303)”, the log2 fold change is 0.452.
“UniProt Q8BQM9 (peptide sequence: KKPQVNAK, peptide start residue: 92)”: the log2 fold change was 0.086.
With “UniProt Q8BTV2 (peptide sequence: HRDLLHNEDRHDDYFQER, peptide start residue: 438)”, the log2 fold change was -0.852.
The value for “UniProt Q8BSD5 (peptide sequence: EDAGRPHHWQK, peptide start residue: 357)” was -0.831.
